Laboratory results taken from PubChem BioAssay (Tox21).
This list was built around the results that the source calls inconclusive (neither active nor inactive); the mix of calls is not that of the screen. For part of these data: Potencies of inconclusive entries are doubtful fits and often do not repeat. Activity calls are given as the source filed them. Unless noted, calls follow the shape of the full dose curve.

Sequences of proteins named here, by UniProt entry; tags and fusion partners are left off. A change or cut given only in a name is not applied to a line headed by its entry.
UniProt P28223, whole entry, looked up: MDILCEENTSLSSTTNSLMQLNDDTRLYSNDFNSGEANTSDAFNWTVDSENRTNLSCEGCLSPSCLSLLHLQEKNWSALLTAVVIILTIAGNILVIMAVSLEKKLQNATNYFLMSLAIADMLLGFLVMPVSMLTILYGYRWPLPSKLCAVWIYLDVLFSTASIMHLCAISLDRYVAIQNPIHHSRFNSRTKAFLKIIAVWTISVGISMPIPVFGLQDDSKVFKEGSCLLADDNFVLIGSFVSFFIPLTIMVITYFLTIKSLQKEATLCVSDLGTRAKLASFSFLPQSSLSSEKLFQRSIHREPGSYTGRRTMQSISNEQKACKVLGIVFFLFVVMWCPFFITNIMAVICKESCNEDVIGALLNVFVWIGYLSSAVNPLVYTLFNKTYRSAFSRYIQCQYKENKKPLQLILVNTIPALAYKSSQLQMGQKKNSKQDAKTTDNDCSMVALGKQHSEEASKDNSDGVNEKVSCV
UniProt P14416, whole entry, looked up: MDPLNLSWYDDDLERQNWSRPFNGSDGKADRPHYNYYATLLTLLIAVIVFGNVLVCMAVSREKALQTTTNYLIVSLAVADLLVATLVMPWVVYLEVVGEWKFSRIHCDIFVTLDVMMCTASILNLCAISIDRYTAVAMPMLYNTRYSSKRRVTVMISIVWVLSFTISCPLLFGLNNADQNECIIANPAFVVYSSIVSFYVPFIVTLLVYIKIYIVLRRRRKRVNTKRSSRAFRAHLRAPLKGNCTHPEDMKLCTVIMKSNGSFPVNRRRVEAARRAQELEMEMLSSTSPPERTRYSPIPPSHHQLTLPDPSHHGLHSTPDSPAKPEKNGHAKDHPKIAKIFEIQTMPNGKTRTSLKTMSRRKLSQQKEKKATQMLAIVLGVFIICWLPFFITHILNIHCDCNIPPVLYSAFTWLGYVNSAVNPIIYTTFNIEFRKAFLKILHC
UniProt P11229: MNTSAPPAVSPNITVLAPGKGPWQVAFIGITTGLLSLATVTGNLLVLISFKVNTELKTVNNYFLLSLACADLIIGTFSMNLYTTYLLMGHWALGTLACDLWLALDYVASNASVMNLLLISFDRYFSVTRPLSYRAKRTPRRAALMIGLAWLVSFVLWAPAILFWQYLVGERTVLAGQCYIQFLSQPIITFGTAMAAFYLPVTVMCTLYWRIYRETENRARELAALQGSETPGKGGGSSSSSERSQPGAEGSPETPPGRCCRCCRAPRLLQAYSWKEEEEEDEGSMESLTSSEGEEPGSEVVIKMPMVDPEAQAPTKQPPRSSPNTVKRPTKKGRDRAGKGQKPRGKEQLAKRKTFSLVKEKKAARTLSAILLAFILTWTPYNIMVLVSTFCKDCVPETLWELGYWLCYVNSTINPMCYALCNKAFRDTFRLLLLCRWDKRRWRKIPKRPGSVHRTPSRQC

Assays:
[1] = target: 5-hydroxytryptamine receptor 2A (Homo sapiens) (UniProt P28223); test: 5-hydroxytryptamine receptor 2A (HTR2A) small molecule antagonists, cell-based qHTS assay (AID 1963586); conditions: HTR2A-CHO cells, DOI-induced calcium flux, fluorescence; series mostly up to 61.5 µM; also: nearly all actives have a fitted effect of over 45% in size; also: potency is read from the fitted curve at half-maximal effect
Method in brief: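 CHO cells stably expressing human HTR2A were plated for 18 h at 37 C, then loaded with calcium dye for 1 h. Compounds were preincubated 5 min at room temperature before DOI (4 nM solution) was added. Kinetic fluorescence was read for 3 min.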

[2] = target: Beta-2 adrenergic receptor (Homo sapiens) (UniProt P07550); test: Adrenergic beta2 receptor (ADRB2) small molecule agonists, cell-based qHTS assay (AID 1963593); conditions: CHO-ADRB2 cells, cAMP HTRF, 30 min;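 also: CHO cells stably overexpressing human ADRB2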
Method in brief: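 CHO cells stably over-expressing ADRB2 were plated overnight at 37C, then dosed with compounds plus a stimulation mix containing 100uM IBMX and 25uM Ro-20-1724 for 0.5hr at room temperature. cAMP was measured by HTRF competition, 1hr.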

[3] = target: D(2) dopamine receptor (Homo sapiens) (UniProt P14416); test: Dopamine D2 receptor (DRD2) small molecule antagonists, cell-based qHTS assay (AID 1963595; active = well fitted inhibition curve with a large enough effect in the signal ratio in the repeat runs, with a control signal flat; inconclusive = weak or mixed curves, or effect the other way; the % refers to the signal ratio); conditions: HEK293-DRD2 cAMP HTRF antagonist mode
Method in brief: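 In this cell-based antagonist screen, compounds act for 10 min at room temperature before a 30 min challenge with 12 nM quinpirole and 200 nM NKH477. cAMP is quantified by HTRF competition in DRD2-HEK293 cells containing 0.1 mM Ro20-1724.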

[4] = target: Muscarinic acetylcholine receptor M1 (Homo sapiens) (UniProt P11229); test: Cholinergic receptor muscarinic 1 (CHRM1) small molecule agonists, cell-based qHTS assay (AID 1963589); conditions: CHRM1-CHO cells, agonist mode, calcium flux fluorescence; activation: at 76.8 µM (top of the series); also: nearly all actives have a fitted effect of over 35% in size; also: potency is read from the fitted curve at half-maximal effect
Method in brief: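 Homogeneous fluorescence calcium flux, agonist mode. Human M1-expressing CHO cells; compound dosed at 15 concentrations, three independent runs; signal sampled every 1 sec.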

[5] = p53 small molecule agonists, cell-based qHTS assay (AID 1963582; active = well fitted activation curve with a large enough effect in the signal ratio in the repeat runs, not every such curve was filed as active; inconclusive = weak or mixed curves; the % refers to the signal ratio; also: potency is read from the fitted curve at half-maximal effect); conditions: HCT-116 p53RE-bla reporter, beta-lactamase FRET ratio, 16 h; activation: at 66 µM (top of the series) unless noted
Method in brief: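 16 h compound exposure (37 C) of p53 response element–bla cells, preceded by 5 h recovery at 37 C/5% CO2; read-out via LiveBLAzer B/G FRET substrate, 2 h RT, fluorescence intensity.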

[6] = cAMP Responsive Elements (CRE) small molecule antagonists, cell-based qHTS assay (AID 1963591; active = well fitted inhibition curve with a large enough effect in the signal ratio in the repeat runs, not every such curve was filed as active; inconclusive = weak or mixed curves, or effect the other way; the % refers to the signal ratio); conditions: CRE-bla HEK293T, beta-lactamase FRET ratio; activity change, negative = inhibition: at 92.4 µM (top of the series) unless noted
Method in brief: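 First, CRE-bla HEK293T cells settled 18 h at 37 C. Next, compound and 0.25 uM final NKH477 were applied for 3 h. Last, LiveBLAzer B/G substrate was loaded for 2 h at room temperature.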

[7] = target: D(2) dopamine receptor (Homo sapiens) (UniProt P14416); test: Dopamine D2 receptor (DRD2) small molecule agonists, cell-based qHTS assay (AID 1963594); conditions: HEK293-DRD2 cAMP HTRF, agonist mode, 30 min; activation: at 92.4 µM (top of the series) unless noted; also: nearly all actives have a fitted effect of over 35% in size
Method in brief: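 HEK293 cells stably expressing DRD2 were cultured 24 h at 37 C, then given Ro20-1724 (0.1 mM final) and compounds for 10 min at room temperature. NKH477 (200nM) was then added for 30 min. cAMP was read by HTRF.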

[8] = target: Beta-2 adrenergic receptor (Homo sapiens) (UniProt P07550); test: Adrenergic beta2 receptor (ADRB2) small molecule antagonists, cell-based qHTS assay (AID 1963592); conditions: CHO-ADRB2 cells, isoproterenol-stimulated cAMP HTRF ratio, 0.5 h; activity change, negative = inhibition: at 92.4 µM (top of the series) unless noted; also: nearly all actives have a fitted effect of over 50% in size
Method in brief: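 Assay format: CHO-ADRB2 cells, 18-20hr seeding at 37C/5% CO2, then compound plus 1nM isoproterenol agonist mix for 0.5hr RT. Homogeneous time-resolved fluorescence cAMP detection after 1hr, expressed as 665/615 nm ratio.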

[9] = activation: at 92.4 µM (top of the series) unless noted
% is scaled to controls: 0 for no effect and ±100 for the full control effect.

Which Potency [1] does the source give for `Cc1ccccc1[N+](=O)[O-]` here?
The Potency was inconclusive: 9.42 µM [inhibitor, full curve, poor fit].

And the activation ([2]; at 92.4 µM (top of the series))?
The activation was inactive: 18.7%.

What about the activity change, negative = inhibition ([3]; at 92.4 µM (top of the series)) of the same compound?
Its activity change, negative = inhibition is inactive: -0.159%.

Which activity, negative = inhibition [1] does the source give for `CCCCCCC(=O)CCCCCC/C=C/C[C@@H](O)[C@H](O)[C@@](N)(CO)C(=O)O` here?
The activity, negative = inhibition was inactive: 87.4% [at 12.7 µM].

For `NS(=O)(=O)C(F)(F)C(F)(F)C(F)(F)C(F)(F)C(F)(F)C(F)(F)C(F)(F)C(F)(F)F`, which Potency [4] is on record?
The Potency was active: 0.0022 µM.

With `ClC1=C(Cl)[C@]2(Cl)[C@@H]3[C@@H](Cl)[C@H](Cl)C[C@@H]3[C@@]1(Cl)C2(Cl)Cl` as the compound, how does the Potency [4] read?
Its Potency is “inactive”.

Which activation ([2]; at 92.4 µM (top of the series)) does the source give for `O=C1Nc2ccc(Cl)cc2C(c2ccccc2)=NC1O` (stereo unspecified) here?
The activation was inactive: 8.19%.

Which Potency [5] does the source give for `BrCCCCBr` here?
The Potency was “inactive”.

And the activity change, negative = inhibition [6]?
The activity change, negative = inhibition was inconclusive: -7.24%.

What about the Potency ([3]; activity change, negative = inhibition: at 92.4 µM (top of the series) unless noted) of the same compound?
The Potency was “inactive”.

For `NC(=O)CC[C@@H]1NC(=O)[C@H](Cc2ccccc2)NC(=O)[C@H](Cc2ccc(O)cc2)NC(=O)CCSSC[C@@H](C(=O)N2CCC[C@H]2C(=O)N[C@@H](CCCN=C(N)N)C(=O)NCC(N)=O)NC(=O)[C@H](CC(N)=O)NC1=O`, which Potency [1] is on record?
The Potency was inconclusive: 0.183 µM [inhibitor, single point].

With `ClC1=C(Cl)C2(Cl)C(CBr)CC1(Cl)C2(Cl)Cl` (stereo unspecified) as the compound, how does the Potency [1] read?
Its Potency is “inactive”.

For `Oc1cccc(Cl)c1`, which Potency [5] is on record?
The Potency was inconclusive: 20.2 µM [falling, single point].

And the activation [2, 9]?
The activation was inconclusive: 0.675%.

Which Potency [5] does the source give for `CC(Cl)Cl` here?
Its Potency is “inactive”.

And the Potency [7]?
The Potency was “inactive”.

For `CC[N+]1(C)CCCC(OC(=O)C(O)(c2ccccc2)c2ccccc2)C1` (stereo unspecified), which Potency [5] is on record?
Its Potency is “inactive”.

What about the activation [2, 9] of the same compound?
Its activation is inconclusive: 14.1% [at 42.5 µM].

With `c1ccc(OP(Oc2ccccc2)Oc2ccccc2)cc1` as the compound, how does the Potency [5] read?
Its Potency is “inactive”.

And the activity change, negative = inhibition [8]?
The activity change, negative = inhibition was inconclusive: -0.669%.

What about the Potency [2, 9] of the same compound?
Its Potency is “inactive”.
